Counter-ions that a name gives are not always drawn. Some of the results follow. The calls rarely recur for the same compound in another form.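 Kinases, fused to nanoluciferase, were expressed in K562 cells; luminescence was measured every 4 h from 2 to 18 h as percent of control (DMSO = 100%, positive control = 0%). A time point is decreased if signal falls significantly (2 sigma). Hits were called by the authors by a rule that is not shown; the count of time points alone does not decide it.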
Key:
Assay in all cases: kinase-Nluc reporter destabilization hit call (1 = scored as downregulated) (binary); higher = compound decreases kinase abundance
Details in all cases: K562; 2-18 h
CDK7 = CDK7 (UniProt P50613)
CDK9 = CDK9 (UniProt P50750)
CHEK2 = CHEK2 (UniProt O96017)
CSF1R = CSF1R (UniProt P07333)
CSK = CSK (UniProt P41240)
CSNK1A1 = CSNK1A1 (UniProt P48729)
CSNK1D = CSNK1D (UniProt P48730)
DDR1 = DDR1 (UniProt Q08345)
DYRK1B = DYRK1B (UniProt Q9Y463)
DYRK2 = DYRK2 (UniProt Q92630)
EGFR = EGFR (UniProt P00533)
EGFR_G719S = EGFR_G719S (UniProt P00533)
EGFR_G719S_T790M = EGFR_G719S_T790M (UniProt P00533)
EGFR_L718V = EGFR_L718V (UniProt P00533)
EGFR_L858R = EGFR_L858R (UniProt P00533)
EGFR_L861Q = EGFR_L861Q (UniProt P00533)
EGFR_T790M = EGFR_T790M (UniProt P00533)
EPHA2 = EPHA2 (UniProt P29317)
ERBB3 = ERBB3 (UniProt P21860)
[1] = molecular target: ERBB4_R711C (clone: ERBB4_mut) (UniProt Q15303)

Chains of the proteins cited; added tags and fusions are not shown. Lines headed by an entry give the natural chain unless they say otherwise; changes in a name come on top.
UniProt P50613: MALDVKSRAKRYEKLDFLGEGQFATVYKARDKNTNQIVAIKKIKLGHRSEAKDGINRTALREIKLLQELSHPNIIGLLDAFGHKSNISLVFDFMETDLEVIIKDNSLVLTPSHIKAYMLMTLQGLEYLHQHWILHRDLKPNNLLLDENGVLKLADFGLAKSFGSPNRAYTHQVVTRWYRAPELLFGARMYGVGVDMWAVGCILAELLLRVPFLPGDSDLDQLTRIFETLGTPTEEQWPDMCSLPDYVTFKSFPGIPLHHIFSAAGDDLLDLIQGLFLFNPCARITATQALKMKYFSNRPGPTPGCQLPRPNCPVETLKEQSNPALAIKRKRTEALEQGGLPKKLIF
UniProt P50750, whole entry: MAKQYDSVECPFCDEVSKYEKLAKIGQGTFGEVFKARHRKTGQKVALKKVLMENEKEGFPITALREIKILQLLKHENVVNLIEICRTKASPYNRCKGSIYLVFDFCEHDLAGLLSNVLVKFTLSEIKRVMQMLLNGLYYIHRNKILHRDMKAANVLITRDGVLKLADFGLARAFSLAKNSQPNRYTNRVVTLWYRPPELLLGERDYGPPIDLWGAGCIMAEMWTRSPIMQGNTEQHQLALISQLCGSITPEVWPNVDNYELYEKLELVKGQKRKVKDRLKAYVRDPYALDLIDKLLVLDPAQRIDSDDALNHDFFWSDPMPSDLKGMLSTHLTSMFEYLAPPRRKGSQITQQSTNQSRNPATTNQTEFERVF
UniProt O96017, whole entry: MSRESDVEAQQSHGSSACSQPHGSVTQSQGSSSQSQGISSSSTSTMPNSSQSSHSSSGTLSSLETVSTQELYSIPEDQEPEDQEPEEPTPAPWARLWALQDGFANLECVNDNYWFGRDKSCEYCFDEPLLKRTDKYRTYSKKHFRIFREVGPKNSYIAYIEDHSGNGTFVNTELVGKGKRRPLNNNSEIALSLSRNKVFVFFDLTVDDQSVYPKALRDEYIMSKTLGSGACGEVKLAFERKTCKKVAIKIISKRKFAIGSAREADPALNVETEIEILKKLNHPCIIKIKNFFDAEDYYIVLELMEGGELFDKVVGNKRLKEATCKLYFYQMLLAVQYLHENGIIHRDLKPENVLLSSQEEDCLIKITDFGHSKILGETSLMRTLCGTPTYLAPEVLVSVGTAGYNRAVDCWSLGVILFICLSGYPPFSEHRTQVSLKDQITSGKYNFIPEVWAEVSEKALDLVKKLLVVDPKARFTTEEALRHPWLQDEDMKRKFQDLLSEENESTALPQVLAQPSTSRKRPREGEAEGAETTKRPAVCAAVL
UniProt P41240: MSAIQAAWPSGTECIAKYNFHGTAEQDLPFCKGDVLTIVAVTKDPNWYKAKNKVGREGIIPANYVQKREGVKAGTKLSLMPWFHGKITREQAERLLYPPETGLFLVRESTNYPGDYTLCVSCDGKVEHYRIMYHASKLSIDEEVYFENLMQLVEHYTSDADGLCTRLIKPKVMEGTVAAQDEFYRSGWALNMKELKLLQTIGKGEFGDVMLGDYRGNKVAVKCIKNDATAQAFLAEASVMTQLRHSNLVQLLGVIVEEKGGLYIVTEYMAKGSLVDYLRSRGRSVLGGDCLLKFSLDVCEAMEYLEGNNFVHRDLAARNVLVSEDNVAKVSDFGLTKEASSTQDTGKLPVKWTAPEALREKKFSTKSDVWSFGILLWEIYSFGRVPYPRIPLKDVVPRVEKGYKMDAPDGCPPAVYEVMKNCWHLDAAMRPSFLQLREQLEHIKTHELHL
UniProt P48729: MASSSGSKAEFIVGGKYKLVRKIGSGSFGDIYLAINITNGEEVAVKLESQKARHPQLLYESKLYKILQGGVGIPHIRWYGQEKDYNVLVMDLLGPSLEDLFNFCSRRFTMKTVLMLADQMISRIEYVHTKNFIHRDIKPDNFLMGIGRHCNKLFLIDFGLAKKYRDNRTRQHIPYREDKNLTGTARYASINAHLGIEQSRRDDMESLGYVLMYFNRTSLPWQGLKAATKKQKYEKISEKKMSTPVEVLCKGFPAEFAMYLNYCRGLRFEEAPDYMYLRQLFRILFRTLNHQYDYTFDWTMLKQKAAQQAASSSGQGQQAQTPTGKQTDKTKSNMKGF
UniProt P48730: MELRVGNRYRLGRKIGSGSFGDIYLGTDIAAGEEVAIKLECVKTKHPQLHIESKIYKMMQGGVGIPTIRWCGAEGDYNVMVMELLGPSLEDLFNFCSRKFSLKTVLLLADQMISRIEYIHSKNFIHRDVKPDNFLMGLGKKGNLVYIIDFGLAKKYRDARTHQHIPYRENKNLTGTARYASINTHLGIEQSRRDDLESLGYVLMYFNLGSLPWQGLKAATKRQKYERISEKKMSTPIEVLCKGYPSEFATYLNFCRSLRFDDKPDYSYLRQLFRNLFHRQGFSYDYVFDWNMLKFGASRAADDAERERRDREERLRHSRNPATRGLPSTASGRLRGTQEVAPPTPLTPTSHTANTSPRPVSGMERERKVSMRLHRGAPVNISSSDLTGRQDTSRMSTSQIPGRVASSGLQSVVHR
UniProt P29317, whole entry: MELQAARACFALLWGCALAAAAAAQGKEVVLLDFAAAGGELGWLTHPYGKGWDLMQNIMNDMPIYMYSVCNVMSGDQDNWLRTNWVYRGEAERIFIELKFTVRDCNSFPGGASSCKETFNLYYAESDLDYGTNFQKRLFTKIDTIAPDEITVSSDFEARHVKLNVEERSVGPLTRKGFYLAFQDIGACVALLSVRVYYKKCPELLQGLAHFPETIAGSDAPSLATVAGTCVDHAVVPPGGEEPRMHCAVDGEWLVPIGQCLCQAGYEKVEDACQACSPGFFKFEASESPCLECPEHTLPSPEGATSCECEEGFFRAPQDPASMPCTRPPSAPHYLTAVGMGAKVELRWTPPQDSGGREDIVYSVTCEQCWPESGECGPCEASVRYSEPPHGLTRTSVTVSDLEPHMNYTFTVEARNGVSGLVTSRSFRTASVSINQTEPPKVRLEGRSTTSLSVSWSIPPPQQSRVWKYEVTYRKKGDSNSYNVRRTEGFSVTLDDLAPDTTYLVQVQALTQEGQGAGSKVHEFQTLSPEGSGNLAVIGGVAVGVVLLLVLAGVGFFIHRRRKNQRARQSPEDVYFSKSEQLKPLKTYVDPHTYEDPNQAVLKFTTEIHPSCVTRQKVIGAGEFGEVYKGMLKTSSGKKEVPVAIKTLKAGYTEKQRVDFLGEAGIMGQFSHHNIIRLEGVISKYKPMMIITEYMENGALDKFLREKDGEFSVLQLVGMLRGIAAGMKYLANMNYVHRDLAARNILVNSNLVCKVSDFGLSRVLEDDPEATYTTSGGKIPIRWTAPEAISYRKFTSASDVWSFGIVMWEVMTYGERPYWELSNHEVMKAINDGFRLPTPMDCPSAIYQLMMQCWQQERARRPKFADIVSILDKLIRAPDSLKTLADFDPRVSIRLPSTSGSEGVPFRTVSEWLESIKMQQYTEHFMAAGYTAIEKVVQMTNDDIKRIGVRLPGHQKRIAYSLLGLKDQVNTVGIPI
UniProt P21860, whole entry: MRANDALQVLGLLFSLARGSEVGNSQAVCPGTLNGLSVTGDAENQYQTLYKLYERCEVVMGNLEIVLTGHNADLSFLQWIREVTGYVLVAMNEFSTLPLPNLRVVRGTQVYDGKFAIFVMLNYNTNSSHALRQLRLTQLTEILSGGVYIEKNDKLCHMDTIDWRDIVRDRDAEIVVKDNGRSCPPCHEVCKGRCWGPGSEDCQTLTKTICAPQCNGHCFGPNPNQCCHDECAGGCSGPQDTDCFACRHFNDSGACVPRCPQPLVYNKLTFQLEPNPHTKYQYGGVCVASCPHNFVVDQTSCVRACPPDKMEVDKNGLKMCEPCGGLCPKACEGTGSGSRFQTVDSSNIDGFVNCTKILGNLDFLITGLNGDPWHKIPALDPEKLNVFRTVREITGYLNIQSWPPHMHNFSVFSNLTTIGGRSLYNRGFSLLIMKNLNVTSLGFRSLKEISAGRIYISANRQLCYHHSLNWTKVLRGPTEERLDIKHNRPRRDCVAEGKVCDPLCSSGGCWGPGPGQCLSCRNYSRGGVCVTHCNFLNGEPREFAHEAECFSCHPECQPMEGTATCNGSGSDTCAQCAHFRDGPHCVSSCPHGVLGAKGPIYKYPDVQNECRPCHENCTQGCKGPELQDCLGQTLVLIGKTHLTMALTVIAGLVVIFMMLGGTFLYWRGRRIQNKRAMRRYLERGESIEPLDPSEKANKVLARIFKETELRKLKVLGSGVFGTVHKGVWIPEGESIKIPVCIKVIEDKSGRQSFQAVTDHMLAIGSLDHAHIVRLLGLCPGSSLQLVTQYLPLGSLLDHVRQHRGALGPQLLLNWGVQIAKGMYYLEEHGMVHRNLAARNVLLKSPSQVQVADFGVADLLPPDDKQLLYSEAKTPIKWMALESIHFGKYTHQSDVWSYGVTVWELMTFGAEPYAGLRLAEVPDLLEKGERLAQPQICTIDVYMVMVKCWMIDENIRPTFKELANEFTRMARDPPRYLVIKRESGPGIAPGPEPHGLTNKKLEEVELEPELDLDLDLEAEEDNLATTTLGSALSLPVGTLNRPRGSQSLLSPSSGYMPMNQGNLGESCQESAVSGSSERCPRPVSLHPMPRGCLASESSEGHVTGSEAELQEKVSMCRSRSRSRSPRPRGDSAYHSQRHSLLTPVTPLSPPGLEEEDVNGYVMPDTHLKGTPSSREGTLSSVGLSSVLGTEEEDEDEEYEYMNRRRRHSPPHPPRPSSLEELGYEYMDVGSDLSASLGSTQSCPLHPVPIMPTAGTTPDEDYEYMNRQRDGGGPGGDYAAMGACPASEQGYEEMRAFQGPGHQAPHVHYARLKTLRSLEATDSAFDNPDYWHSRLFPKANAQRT
UniProt Q15303, whole entry R711C: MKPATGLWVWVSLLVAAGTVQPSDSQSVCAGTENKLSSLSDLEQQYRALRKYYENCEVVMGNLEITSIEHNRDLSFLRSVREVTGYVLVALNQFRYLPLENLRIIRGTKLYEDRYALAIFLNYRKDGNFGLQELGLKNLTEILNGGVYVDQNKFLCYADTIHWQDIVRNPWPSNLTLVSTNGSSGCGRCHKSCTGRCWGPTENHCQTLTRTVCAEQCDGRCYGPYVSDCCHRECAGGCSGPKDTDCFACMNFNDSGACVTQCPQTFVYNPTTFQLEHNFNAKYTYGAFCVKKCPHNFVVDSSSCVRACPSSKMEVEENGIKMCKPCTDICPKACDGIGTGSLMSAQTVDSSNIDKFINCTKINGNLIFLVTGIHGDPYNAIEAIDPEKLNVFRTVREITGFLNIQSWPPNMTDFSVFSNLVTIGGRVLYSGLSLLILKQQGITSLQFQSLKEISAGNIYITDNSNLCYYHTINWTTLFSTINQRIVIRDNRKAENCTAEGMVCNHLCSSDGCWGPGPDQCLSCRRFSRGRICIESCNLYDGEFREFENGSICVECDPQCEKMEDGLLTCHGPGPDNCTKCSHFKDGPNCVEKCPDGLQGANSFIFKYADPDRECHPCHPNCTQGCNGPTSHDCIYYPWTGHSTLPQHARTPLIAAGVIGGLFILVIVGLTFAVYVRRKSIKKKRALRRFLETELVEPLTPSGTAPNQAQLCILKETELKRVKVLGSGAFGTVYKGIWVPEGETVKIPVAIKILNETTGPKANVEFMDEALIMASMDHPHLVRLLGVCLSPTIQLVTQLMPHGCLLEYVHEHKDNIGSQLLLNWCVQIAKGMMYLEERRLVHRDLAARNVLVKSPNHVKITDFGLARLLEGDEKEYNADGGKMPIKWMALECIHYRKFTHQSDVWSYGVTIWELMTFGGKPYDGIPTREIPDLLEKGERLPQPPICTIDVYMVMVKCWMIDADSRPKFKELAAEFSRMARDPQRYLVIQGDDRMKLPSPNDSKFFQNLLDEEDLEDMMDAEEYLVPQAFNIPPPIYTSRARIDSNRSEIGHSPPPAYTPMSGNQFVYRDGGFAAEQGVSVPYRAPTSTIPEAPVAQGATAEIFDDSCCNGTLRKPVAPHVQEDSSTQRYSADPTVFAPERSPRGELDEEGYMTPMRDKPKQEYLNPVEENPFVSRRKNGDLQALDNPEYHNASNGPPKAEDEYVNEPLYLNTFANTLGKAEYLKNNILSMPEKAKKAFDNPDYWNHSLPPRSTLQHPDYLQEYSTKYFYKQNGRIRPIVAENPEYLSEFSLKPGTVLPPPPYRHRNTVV

Measured: kinase-Nluc reporter destabilization hit call

CS(=O)(=O)c1ccc([C@@H](CC2CCCC2)C(=O)Nc2nccs2)cc1 (10 µM)
inactive: CDK7 = 0 | CDK9 = 0 | CHEK2 = 0 | CSF1R 0 | CSK 0 | CSNK1A1 = 0 | CSNK1D 0 | DDR1 = 0 | DYRK1B 0 | DYRK2 = 0 | EGFR 0 | EGFR_G719S 0 | EGFR_G719S_T790M 0 | EGFR_L718V 0 | EGFR_L858R 0 | EGFR_L861Q 0 | EGFR_T790M 0 | EPHA2 = 0 | ERBB3 = 0 | [1] 0

Nc1ccc(-c2nc3ccc(-c4nc5ccc(N)cc5[nH]4)cc3[nH]2)cc1 (10 µM)
inactive: CDK7 = 0 | CDK9 = 0 | CHEK2 = 0 | CSF1R 0 | CSK 0 | CSNK1A1 = 0 | CSNK1D 0 | DDR1 = 0 | DYRK1B 0 | DYRK2 = 0 | EGFR 0 | EGFR_G719S 0 | EGFR_G719S_T790M 0 | EGFR_L718V 0 | EGFR_L858R 0 | EGFR_L861Q 0 | EGFR_T790M 0 | EPHA2 = 0 | ERBB3 = 0 | [1] 0

Cn1cc(-c2nc(N[C@@H]3CCCC[C@@H]3N)c(F)c3c2C(=O)NC3)cn1 [TAK-659 (hydrochloride)] (2 µM)
inactive: CDK7 = 0 | CDK9 = 0 | CHEK2 = 0 | CSF1R 0 | CSK 0 | CSNK1A1 = 0 | CSNK1D 0 | DDR1 = 0 | DYRK1B 0 | DYRK2 = 0 | EGFR 0 | EGFR_G719S 0 | EGFR_G719S_T790M 0 | EGFR_L718V 0 | EGFR_L858R 0 | EGFR_L861Q 0 | EGFR_T790M 0 | EPHA2 = 0 | ERBB3 = 0 | [1] 0

O=C1Cc2ccccc2N1 [Oxindole] (10 µM)
inactive: CDK7 = 0 | CDK9 = 0 | CHEK2 = 0 | CSF1R 0 | CSK 0 | CSNK1A1 = 0 | CSNK1D 0 | DDR1 = 0 | DYRK1B 0 | DYRK2 = 0 | EGFR 0 | EGFR_G719S 0 | EGFR_G719S_T790M 0 | EGFR_L718V 0 | EGFR_L858R 0 | EGFR_L861Q 0 | EGFR_T790M 0 | EPHA2 = 0 | ERBB3 = 0 | [1] 0
